Experimental findings from the odorant receptor screen of Mainland et al. (2015) are described below.

Test in all cases: odorant receptor activation (CRE luciferase / Renilla) (fold of no-odor wells); higher = more activation
Settings in all cases: 100 µM

Test [1] has as its system OR10C1 clone 1065.
Test [2] has as its system OR10G3 S73G clone 1272.
Test [3] has as its system OR10G4 A9V/M134V/V195E/R235G/K295Q clone 1119.
The subject of test [4] is OR10G6 clone 1108.
The test system of test [5] is OR10G7 clone 1589.
Test [6] relates to OR10G8 clone 1396.
Test [7] relates to OR10G9 A90T/M134V clone 1192.
Test [8] deals with OR10H1 clone 1291.
Test [9] relates to OR10H2 L40Q clone 1461.
The subject of test [10] is OR10H3 clone 1525.
Test [11] relates to OR10H5 A224D clone 1294.
Test [12] concerns OR10J1 clone 1711.
For test [13], the system named is OR10J3 clone 1458.
The test system of test [14] is OR10J5 R233W clone 1410.
Test [15] relates to OR10J5 clone 1037.
Test [16] deals with OR10K1 clone 1024.
Test [17] relates to OR10K2 clone 1040.
Test [18] deals with OR10P1 clone 1254.
Test [19] deals with OR10Q1 clone 1202.
Test [20] has as its system OR10R2 A191T/E216G/L239F clone 1304.

Values joined by “and” are separate entries in the source; they are usually repeats but may differ in a detail not shown here. Equal values may be shown once. Some of the results follow. Single wells; the ratio to wells without odorant was worked out here, and repeats agree poorly.

As to `CCCCCCCCC=O` [nonyl aldehyde], the odorant receptor activation in test [1] came to 0.822; in test [2], 1.1; in [3], 1.23; in test [4], 1.06; in test [5], 13.2; in [6], 0.886. Further, the odorant receptor activation came out at 1.12 in [7]; 0.988 in test [8]; 1.06 in test [9]; 1.03 in [10]; 1.09 in test [11]; 0.836 in [12]. The odorant receptor activation worked out at 1.19 in [13]; 0.974 in [14]; 0.936 in [15]; 1.27 in [16]; 0.844 in test [17]; 0.992 in test [18]. Also, the odorant receptor activation in test [19] was determined as 0.988; in test [20], 1.14.
Regarding `CC(=O)c1ccccc1` [acetophenone], the odorant receptor activation stood at 0.709 in [1]; 3.99 in test [2]; 1.04 in test [4]; 0.78 in [6]; 1.08 in test [7]; 2.18 in test [8]. The odorant receptor activation in [9] was 1.25 and 0.885; in test [10] it was 1.08 and 0.674; in [11], 1.02; in test [14], 0.857; in test [15], 0.982; in [16], 0.997. Also, the odorant receptor activation in [17] worked out at 1.86; in [18] it was 0.706; in test [19], 0.959; in [20], 2.
Regarding `CCCCCC(C)=O` [2-heptanone], the odorant receptor activation in [1] came to 0.786; in test [2] it was 1.86; in [4] it was 0.828; in test [6], 0.897; in test [7], 1.23; in test [8], 1.45. For the same compound, the odorant receptor activation is 1.37 and 0.874 in test [9]; 0.935 and 0.528 in [10]; 1.02 in test [11]; 0.802 in [14]; 0.407 in test [15]; 0.829 in [16]. Besides, the odorant receptor activation in test [17] was found to be 0.957; in [18], 2.02; in [19], 1.14; in test [20], 1.04.
As for `CCCCCCCC=CC=O` [2-decenal], the odorant receptor activation in test [1] is 6.15; in [2], 1.64; in test [3], 1.01; in [4], 42; in [5], 1.49; in test [6], 1.02. In addition, the odorant receptor activation in test [7] worked out at 1.12; in test [8], 0.893; in [9], 1.34; in test [10], 1.9; in test [11] it was 0.637; in test [12], 0.879. Moreover, the odorant receptor activation in [13] came to 1.18; in test [14], 2.06; in [15] it was 15.8; in test [16], 10.1; in test [17], 6.01; in [18], 0.766. Also, the odorant receptor activation in test [19] is 1.05; in test [20], 1.27.
With `CCCCCCC=O` [heptaldehyde], the odorant receptor activation in test [1] was 0.846 and 1.86; in test [2], 0.734 and 0.871 and 0.85; in [3], 2.29; in test [4] it was 1.15 and 1.13; in [5], 2.28; in test [6], 0.974 and 0.725. Moreover, the odorant receptor activation in test [7] was 0.305 and 0.681; in [8] it was 0.652 and 1.02 and 0.92; in test [11] it was 0.524 and 0.932 and 0.746; in [12], 0.853; in test [13], 0.759; in test [14], 0.912 and 0.871. For the same compound, the odorant receptor activation in test [15] is 1.37 and 1.68; in test [16], 0.85 and 1.23; in test [17], 2.12 and 1.04; in [19], 0.391 and 0.998; in test [20], 0.524 and 0.848 and 0.827.
In the case of `C=C(C)C1CCC2=CC(=O)CC(C)C2(C)C1` (centres undefined) [amyl laurate], the odorant receptor activation came to 2.35 in test [3], 1.36 in test [5], 1.33 in test [12] and 1.73 in test [13].
For `O=C1CCCCC1` [Cyclohexanone], the odorant receptor activation in [1] worked out at 0.162; in test [2] it was 0.728; in test [4], 2.45; in test [6], 0.948; in [7], 0.811; in test [8], 0.587. Moreover, the odorant receptor activation in test [9] was 0.785 and 1.09; in test [10], 1.36 and 0.792; in [11], 0.693; in test [14] it was 0.779; in [15], 0.789; in [16], 0.895. The odorant receptor activation in test [17] came out at 1.33; in [18], 0.518; in test [19], 0.969; in [20], 0.792.
Take `CC(C)(O)CCCC1=CCC(C=O)CC1` (centres undefined) [lyral]: the odorant receptor activation in test [3] came out at 1.41; in [5], 1.21; in test [12], 1.13; in test [13], 1.21.
Turning to `CC12C=CCC1C1CCC3CC(=O)CCC3(C)C1CC2` (centres undefined) [androstenone], the odorant receptor activation in test [1] is 1.7; in test [2] it was 1.29; in test [4], 21; in test [6], 1.19; in test [7] it was 4.49; in test [8], 1.15. Also, the odorant receptor activation is 1.07 in test [9]; 1.1 in test [10]; 1.21 in [11]; 1.32 in [14]; 1.75 in test [15]; 2.2 in test [16]. Further, the odorant receptor activation is 1.42 in test [17], 0.897 in [18], 5.74 in test [19] and 1.31 in test [20].
